# From the M2OR odorant receptor database
# Chains of the proteins cited; added tags and fusions are not shown. A line that says so, or that is headed by a name, gives the form on record, which may keep a tag or linker.
# O11H2, as listed by the source: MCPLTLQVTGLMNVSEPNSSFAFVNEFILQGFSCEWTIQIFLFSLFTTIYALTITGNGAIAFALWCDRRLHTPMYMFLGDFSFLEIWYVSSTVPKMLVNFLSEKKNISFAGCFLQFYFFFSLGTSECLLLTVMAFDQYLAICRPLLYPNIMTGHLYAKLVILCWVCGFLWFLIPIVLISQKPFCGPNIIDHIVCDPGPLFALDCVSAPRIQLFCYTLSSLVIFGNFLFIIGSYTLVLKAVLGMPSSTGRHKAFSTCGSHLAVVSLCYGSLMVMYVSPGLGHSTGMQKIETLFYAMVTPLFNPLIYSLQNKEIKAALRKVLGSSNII
# Changes are numbered by the printed parent chain. Only a part is listed here, and it is no random draw. The calls were merged from several studies; some rest on single wells. The list shows a part of the results.
# Key:
# Settings in all cases: stereoisomer not certain
# O11H1 [1] = system: T1, O11H1
# T1 sequence (whole entry): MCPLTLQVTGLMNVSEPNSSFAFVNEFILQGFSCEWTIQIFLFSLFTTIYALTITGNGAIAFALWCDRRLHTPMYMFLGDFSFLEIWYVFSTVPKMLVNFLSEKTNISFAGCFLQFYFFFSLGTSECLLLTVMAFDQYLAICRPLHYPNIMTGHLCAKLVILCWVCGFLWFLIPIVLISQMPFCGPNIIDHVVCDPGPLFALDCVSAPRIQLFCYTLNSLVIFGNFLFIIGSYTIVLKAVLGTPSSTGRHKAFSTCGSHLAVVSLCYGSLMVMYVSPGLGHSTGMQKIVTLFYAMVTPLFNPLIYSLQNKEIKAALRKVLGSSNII
# How it was run: (§1)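 Assay methods differ from source to source, frequently being transient luciferase assays in mammalian cell lines. For each receptor–molecule pair, the label responsive (active) applies when the original authors judged the measured signal statistically different from baseline, and non-responsive (inactive) applies otherwise.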
# O11H1 [2] = system: T2, O11H1; remark: listed apart in the source
# T2 sequence (whole entry): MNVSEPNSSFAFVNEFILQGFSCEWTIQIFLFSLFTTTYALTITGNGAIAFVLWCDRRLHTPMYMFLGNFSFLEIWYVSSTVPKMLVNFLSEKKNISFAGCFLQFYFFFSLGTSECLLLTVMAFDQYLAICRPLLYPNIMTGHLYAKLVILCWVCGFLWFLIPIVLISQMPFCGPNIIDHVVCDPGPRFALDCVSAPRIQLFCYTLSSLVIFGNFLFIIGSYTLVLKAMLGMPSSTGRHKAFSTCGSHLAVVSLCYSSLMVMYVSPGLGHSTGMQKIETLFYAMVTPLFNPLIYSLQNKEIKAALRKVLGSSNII
# How it was run: as §1
# O11H2 = system: T3, O11H2
# T3 sequence (whole entry): T1 sequence (whole entry) with F90S, T105K, H146L, C156Y, M181K, V192I, N218S, I235L, T243M, V289E
# How it was run: as §1
# O11H4 = system: T4, O11H4
# T4 sequence (whole entry): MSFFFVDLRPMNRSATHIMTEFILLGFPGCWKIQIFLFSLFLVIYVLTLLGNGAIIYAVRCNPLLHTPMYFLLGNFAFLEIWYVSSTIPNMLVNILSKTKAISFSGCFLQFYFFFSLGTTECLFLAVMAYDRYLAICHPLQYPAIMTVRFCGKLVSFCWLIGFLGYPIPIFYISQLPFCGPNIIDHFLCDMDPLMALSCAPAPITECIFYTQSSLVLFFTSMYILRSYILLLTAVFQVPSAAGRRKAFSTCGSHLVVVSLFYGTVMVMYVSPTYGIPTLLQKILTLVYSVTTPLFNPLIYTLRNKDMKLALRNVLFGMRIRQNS
# How it was run: as §1
# O11L1 = system: T5, O11L1
# T5 sequence (whole entry): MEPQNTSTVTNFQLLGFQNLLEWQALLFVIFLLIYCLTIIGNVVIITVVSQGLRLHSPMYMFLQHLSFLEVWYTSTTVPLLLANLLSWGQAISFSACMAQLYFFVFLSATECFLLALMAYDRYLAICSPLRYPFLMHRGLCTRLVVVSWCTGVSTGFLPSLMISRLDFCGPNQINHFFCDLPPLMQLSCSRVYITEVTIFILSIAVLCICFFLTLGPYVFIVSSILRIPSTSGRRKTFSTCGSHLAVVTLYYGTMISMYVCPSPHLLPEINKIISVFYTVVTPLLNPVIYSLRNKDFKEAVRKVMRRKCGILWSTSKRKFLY
# How it was run: as §1
# O12D2 = system: T6, O12D2
# T6 sequence (whole entry): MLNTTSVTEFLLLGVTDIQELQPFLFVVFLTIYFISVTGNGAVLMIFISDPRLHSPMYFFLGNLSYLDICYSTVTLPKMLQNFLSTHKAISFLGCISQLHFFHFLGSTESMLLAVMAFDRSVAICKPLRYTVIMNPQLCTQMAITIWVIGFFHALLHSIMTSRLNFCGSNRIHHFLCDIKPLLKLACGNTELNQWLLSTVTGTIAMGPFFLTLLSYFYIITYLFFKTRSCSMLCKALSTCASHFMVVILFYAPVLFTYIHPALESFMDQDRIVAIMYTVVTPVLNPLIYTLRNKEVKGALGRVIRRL
# How it was run: as §1
# O13C3 = system: T7, O13C3
# T7 sequence (whole entry): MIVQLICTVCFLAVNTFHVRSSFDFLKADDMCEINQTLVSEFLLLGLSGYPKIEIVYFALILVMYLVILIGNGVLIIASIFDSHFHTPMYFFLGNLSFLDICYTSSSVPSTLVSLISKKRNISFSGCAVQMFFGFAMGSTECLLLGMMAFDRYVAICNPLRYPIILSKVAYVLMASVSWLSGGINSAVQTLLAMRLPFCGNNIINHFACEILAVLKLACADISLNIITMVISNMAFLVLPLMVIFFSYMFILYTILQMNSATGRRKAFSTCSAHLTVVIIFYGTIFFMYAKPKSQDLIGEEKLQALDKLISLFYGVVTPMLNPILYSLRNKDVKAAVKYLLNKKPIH
# How it was run: as §1
# O13C5 = system: T8, O13C5
# T8 sequence (whole entry): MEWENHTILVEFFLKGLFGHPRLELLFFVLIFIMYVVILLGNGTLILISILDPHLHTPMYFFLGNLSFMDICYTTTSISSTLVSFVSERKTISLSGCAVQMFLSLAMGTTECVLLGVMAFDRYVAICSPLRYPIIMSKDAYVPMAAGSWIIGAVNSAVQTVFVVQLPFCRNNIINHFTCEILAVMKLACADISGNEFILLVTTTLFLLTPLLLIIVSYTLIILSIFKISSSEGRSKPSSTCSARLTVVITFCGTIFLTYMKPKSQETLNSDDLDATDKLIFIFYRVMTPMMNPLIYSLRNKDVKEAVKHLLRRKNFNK
# How it was run: as §1
# O13C7 = system: T9, O13C7
# T9 sequence (whole entry): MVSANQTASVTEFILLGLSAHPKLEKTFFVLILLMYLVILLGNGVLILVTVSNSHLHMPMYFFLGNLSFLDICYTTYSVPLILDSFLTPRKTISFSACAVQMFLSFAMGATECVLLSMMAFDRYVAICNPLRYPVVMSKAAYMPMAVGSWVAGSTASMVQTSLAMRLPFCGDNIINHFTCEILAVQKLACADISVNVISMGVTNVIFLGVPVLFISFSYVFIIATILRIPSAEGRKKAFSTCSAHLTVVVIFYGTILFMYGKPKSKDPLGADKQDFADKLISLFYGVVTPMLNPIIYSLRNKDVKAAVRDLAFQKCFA
# How it was run: as §1
# O13C9 = system: T10, O13C9
# T10 sequence (whole entry): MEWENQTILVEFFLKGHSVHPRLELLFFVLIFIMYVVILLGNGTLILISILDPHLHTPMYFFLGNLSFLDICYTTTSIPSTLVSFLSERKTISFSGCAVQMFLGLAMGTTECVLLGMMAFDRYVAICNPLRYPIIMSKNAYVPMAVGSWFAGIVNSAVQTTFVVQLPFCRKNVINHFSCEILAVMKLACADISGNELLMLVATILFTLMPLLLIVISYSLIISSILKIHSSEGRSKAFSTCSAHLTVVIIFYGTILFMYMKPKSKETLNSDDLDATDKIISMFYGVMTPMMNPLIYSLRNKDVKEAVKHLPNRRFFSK
# How it was run: as §1
# O13D1 [3] = system: T11, O13D1
# T11 sequence (whole entry): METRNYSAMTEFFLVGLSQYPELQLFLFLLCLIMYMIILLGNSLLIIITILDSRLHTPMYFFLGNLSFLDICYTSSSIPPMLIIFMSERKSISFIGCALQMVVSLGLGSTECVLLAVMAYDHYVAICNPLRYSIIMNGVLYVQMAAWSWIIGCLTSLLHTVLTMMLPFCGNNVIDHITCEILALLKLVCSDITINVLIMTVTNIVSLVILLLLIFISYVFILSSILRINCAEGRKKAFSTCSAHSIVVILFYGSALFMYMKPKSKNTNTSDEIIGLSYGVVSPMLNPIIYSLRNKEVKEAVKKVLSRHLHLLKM
# How it was run: as §1
# O13D1 [4] = system: T12, O13D1; remark: listed apart in the source
# T12 sequence (whole entry): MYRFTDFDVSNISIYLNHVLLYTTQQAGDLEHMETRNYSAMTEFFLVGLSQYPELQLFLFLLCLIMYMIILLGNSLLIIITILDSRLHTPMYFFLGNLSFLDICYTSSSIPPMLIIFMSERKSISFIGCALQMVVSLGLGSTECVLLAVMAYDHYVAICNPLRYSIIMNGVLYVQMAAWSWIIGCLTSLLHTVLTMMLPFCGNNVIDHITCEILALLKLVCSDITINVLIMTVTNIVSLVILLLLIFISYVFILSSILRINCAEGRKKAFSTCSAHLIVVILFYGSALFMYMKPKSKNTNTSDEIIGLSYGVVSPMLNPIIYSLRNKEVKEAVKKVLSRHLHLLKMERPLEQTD
# How it was run: as §1
# O13F1 = system: T13, O13F1
# T13 sequence (whole entry): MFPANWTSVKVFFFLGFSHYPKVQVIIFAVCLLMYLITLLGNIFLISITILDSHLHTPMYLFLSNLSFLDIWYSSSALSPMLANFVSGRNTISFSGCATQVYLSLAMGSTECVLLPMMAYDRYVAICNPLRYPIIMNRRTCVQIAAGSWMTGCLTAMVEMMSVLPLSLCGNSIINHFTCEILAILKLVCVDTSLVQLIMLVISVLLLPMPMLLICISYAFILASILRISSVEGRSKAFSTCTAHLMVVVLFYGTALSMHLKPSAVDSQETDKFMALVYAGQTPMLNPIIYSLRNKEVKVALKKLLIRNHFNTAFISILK
# How it was run: as §1
# O13G1 = system: T14, O13G1
# T14 sequence (whole entry): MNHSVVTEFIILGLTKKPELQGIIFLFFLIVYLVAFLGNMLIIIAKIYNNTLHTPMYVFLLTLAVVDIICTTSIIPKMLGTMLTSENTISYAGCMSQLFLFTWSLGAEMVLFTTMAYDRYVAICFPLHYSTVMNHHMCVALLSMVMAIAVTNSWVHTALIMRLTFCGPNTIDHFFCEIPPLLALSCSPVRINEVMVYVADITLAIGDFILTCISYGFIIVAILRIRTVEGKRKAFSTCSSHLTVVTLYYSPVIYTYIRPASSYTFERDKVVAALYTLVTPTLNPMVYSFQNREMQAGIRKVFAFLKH
# How it was run: as §1
# O13J1 = system: T15, O13J1
# T15 sequence (whole entry): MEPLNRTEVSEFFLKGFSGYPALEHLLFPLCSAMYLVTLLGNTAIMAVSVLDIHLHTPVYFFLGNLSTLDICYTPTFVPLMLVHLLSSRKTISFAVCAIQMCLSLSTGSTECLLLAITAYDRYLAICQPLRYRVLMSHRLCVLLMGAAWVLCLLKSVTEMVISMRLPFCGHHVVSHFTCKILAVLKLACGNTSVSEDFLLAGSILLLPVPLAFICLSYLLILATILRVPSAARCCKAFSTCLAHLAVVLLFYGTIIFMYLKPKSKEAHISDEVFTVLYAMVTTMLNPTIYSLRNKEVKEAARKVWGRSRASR
# How it was run: as §1
# O1440 [5] = system: T16, O1440
# T16 sequence (whole entry): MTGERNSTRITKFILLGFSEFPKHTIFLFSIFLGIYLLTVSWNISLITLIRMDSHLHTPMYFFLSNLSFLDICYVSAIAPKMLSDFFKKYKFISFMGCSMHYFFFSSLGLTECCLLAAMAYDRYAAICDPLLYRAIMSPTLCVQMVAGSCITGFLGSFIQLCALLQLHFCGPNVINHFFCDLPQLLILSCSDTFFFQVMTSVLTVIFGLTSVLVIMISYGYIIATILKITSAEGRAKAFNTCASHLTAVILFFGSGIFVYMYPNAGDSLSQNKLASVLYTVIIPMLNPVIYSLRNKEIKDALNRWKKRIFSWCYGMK
# How it was run: as §1
# O1440 [6] = system: T17, O1440; remark: listed apart in the source
# T17 sequence (whole entry): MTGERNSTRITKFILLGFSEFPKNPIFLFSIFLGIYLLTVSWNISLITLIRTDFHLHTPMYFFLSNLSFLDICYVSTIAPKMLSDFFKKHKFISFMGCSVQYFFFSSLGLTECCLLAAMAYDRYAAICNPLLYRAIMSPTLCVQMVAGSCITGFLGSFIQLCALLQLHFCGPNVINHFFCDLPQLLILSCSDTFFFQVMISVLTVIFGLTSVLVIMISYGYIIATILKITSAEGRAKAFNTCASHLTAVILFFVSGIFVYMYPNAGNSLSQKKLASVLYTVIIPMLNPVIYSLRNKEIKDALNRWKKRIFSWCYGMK
# How it was run: as §1
SMILES,odorant receptor agonist call (O11H1 [1]),odorant receptor agonist call (O11H1 [2]),odorant receptor agonist call (O11H2),odorant receptor agonist call (O11H4),odorant receptor agonist call (O11L1),odorant receptor agonist call (O12D2),odorant receptor agonist call (O13C3),odorant receptor agonist call (O13C5),odorant receptor agonist call (O13C7),odorant receptor agonist call (O13C9),odorant receptor agonist call (O13D1 [3]),odorant receptor agonist call (O13D1 [4]),odorant receptor agonist call (O13F1),odorant receptor agonist call (O13G1),odorant receptor agonist call (O13J1),odorant receptor agonist call (O1440 [5]),odorant receptor agonist call (O1440 [6])
CCCCCC(=O)O,inactive,inactive,inactive,inactive,inactive,inactive,inactive,inactive,inactive,inactive,inactive,inactive,inactive,inactive,inactive,,
C=C(C)C1CCC2=CC(=O)CC(C)C2(C)C1 (centres undefined),,active,,,,,,,,,,,,,,,
O=C1CCCCCCCCCCCCCCO1,inactive,inactive,inactive,inactive,inactive,inactive,inactive,inactive,inactive,inactive,inactive,inactive,inactive,inactive,inactive,active,active
O=C1CCCCCCCCCCCC(=O)OCCO1,inactive,inactive,inactive,inactive,inactive,inactive,inactive,inactive,inactive,inactive,inactive,inactive,inactive,inactive,inactive,active,active
CCCCCCCC=CC=O,inactive,active,inactive,inactive,active,inactive,inactive,inactive,inactive,inactive,inactive,inactive,inactive,active,inactive,,
O=C1CCCCC1,inactive,,inactive,inactive,inactive,inactive,inactive,inactive,inactive,inactive,inactive,inactive,inactive,inactive,inactive,inactive,inactive
CC1COCc2cc3c(cc21)C(C)(C)C(C)C3(C)C (centres undefined),active,active,active,active,active,active,active,active,inactive,active,active,active,active,inactive,inactive,active,active
CC(C)(O)CCCC1=CCC(C=O)CC1 (centres undefined),,inactive,,,,,,,,,,,,,,,
